Test results as given in patent US20040162413A1 (published 2004).
Substitutions are numbered along the chain they refer to. No constants are given. Whether binding was seen depends on the method and setting. Some binding calls cover weakened binding; strength is not graded here.

Protein sequences, listed by entry. Tags and fused reporters are not part of them. Residues count along the entry.
UniProt P04275, residues 764-2813: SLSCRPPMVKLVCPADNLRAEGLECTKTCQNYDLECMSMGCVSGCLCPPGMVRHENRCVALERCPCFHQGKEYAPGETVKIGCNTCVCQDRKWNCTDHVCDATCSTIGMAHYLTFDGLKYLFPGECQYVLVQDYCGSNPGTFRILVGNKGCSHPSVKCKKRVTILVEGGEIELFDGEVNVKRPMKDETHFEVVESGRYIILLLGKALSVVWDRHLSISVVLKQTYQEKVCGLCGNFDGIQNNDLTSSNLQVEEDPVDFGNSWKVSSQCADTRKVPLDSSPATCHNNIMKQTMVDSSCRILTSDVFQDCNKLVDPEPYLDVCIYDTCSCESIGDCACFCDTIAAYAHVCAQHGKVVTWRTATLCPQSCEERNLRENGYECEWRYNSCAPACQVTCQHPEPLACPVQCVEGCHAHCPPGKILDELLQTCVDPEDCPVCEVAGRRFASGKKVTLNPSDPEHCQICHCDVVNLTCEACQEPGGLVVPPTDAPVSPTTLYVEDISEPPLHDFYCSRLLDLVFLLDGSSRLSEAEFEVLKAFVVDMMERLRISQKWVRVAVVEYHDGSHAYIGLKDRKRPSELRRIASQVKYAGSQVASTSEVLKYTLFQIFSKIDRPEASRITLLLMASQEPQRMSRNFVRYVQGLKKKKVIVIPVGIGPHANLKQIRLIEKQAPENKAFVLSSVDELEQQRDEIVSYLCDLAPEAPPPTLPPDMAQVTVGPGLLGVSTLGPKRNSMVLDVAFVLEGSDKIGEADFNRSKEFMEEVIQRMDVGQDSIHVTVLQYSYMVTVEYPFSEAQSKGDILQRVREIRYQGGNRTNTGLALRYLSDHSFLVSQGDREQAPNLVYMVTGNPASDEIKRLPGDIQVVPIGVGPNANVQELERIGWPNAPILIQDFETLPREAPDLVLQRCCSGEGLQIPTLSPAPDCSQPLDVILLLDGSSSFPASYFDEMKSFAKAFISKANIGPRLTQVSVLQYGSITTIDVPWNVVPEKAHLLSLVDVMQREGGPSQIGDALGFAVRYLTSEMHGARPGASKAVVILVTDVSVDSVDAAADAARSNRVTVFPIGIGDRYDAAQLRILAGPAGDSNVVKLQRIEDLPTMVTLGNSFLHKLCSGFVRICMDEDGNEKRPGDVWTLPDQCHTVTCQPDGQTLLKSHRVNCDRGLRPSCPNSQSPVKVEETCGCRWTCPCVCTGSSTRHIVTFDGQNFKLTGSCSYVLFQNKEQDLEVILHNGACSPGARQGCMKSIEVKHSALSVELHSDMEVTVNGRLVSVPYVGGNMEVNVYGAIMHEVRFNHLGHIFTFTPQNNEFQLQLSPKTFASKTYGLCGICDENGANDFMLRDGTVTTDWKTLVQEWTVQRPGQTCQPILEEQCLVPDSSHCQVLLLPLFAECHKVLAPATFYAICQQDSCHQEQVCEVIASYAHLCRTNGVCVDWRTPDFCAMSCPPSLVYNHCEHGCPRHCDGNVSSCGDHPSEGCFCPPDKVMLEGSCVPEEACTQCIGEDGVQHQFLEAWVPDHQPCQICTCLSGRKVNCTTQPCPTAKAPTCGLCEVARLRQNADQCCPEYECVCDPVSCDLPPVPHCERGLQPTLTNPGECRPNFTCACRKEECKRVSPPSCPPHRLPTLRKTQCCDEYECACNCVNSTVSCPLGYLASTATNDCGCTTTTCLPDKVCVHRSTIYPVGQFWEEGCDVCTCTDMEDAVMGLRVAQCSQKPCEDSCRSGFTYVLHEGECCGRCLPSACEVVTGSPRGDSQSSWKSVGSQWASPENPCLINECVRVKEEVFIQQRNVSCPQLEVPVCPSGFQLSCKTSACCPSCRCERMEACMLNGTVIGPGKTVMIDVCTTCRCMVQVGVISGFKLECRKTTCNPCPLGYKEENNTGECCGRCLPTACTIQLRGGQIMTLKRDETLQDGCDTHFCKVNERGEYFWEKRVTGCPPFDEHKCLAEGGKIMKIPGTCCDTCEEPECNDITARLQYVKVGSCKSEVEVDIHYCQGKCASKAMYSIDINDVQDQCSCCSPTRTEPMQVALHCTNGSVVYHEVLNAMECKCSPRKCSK

B1: NMC-4 antibody (parental/donor antibody) (antibody, V domains shown)
VH: VQLLESGPGLVAPSQSLSITCTVSGFSLTDYGVDWVRQPPGKGLEWLGMIWGDGSTDYNSALKSRLSITKDNSKSQVFLKMNSLQTDDTARYYCVRDPADYGNYDYALDYWGQGTSVTVS
VL: SSLSASLGDRVTISCSASQDINKYLNWYQQKPDGAVKLLIFYTSSLHSGVPSRFSGSGSGTDYSLTISNLEPEDIATYYCQQYEKLPWTFGGGTKLEVK
notes: also called parental/donor NMC-4 antibody
B2: anti-vWF combinatorial library clone C1 Fab (Fab, V domains shown)
VH: EVQLVESGGGLVQPGGSLRLSCAASGFSLGDYGVDWVRQAPGKGLEWVGMIWPDGSTDYNSALQSRFTISRDDSKNSLYLQMNSLKTEDTAVYYCARDPADYGNYNYALDYWGQGTTVTVS
VL: DIQMTQSPSSLSASVGDRVTITCSASQDINDYLNWYQQKPGKAPKLLIYNTSSLHSGVPSRFSGSGSGTDFTLTISSLQPEDFATYYCQQYEDLPWTFGGGTKVEIK
notes: Fab with human CL and CH1
B3: anti-vWF combinatorial library clone C8 Fab (Fab, V domains shown)
VH: B2 VH with Y59V
VL: B2 VL with S53V
B4: anti-vWF combinatorial library clone C9 Fab (Fab, V domains shown)
VH: B2 VH with Y59V, Q64K, N106D
VL: B2 VL with S56V
B5: anti-vWF combinatorial library clone C4 Fab (Fab, V domains shown)
VH: B2 VH with P53G, T57V, Y59V
VL: B2 VL with N50G
notes: Fab with human CL and CH1
B6: anti-vWF combinatorial library clone C7 Fab (Fab, V domains shown)
VH: B2 VH with Y59I, Q64K, P99W
VL: B2 VL

molecular target: T1, human von Willebrand Factor (human, UniProt P04275 764-2813); assay: vWF ELISA (FIG. 6), reference
T1 construct: In the ELISA captured on plates by goat anti-human vWF; biotinylated in the plaque lift; also called vWF; human vWF

binding, binds:
B1

molecular target: T1, human von Willebrand Factor; assay: ELISA: human vWF captured on goat anti-human vWF coated plates, Fab dilutions, goat anti-human kappa alkaline phosphatase, O.D. 560 after 30 min

binding, binds:
B2
B3
B4
B5
B1

molecular target: T1, human von Willebrand Factor; assay: filter lift and ELISA of periplasmic Fab on captured human vWF

binding, binds:
B2
B3
B6
B4
B5
